Data published in patent US4624943 (dated 1986).
Some peptides are written in HELM: one residue between dots, names in brackets for other building blocks, links after the first $.

Assay: general procedure: Boc solid-phase peptide synthesis; Boc-Pro-Merrifield resin; DCC/HBT (DMAP catalyst for 4-MeBzl-Pmp/Mpa)
Conditions: late stage modification step

Q: For “PEPTIDE1{[Pmp].[D-Tyr(Et)].F.V.N.C.P.[NHCH2-3-C6H4-CH2NH2]}$PEPTIDE1,PEPTIDE1,1:R3-6:R3$$$V2.0”, which step yield is on record?
A: Its step yield is 44%.
